PubChem BioAssay AID493246 – Drosophila RNAi Screening Center – 2011
Assay: 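Genes fly cells need to grow and stay alive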 (primary screen). Cells: Drosophila Kc and S2R+ cells. Reagent: long dsRNA against Drosophila genes. Detection: 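Raw, unnormalised count of remaining cells in each well; per-plate z-scores of cell number underlie the calls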. Scale: Kc cell number and S2R+ cell number: higher = more cells remaining. Hit rule: 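Counted as a hit if cell number falls by a z-score of at least 3 within its plate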.
In all, the deposit lists about 21,000 reagents; below is an unselected part of those with a known target gene and a result. In the full data, 429 (2%) are marked active. 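Values are raw and not normalised between plates; calls rest on per-plate z-scores that were not deposited.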 A number with no mark means an inactive call. The numbers tell different reagents against one gene apart. Reagent sequences are not shown. Not given: the amount of reagent, the time to read-out.

What is on record for NAAT1 (Nutrient Amino Acid Transporter 1)?
Kc cell number, rep 1: 1.48e6; Kc cell number, rep 2: 1.49e6; S2R+ cell number, rep 1: 9.73e5; S2R+ cell number, rep 2: 1.13e6

What did the screen give for CG11106?
Kc cell number, rep 1: 1.69e6; Kc cell number, rep 2: 1.59e6; S2R+ cell number, rep 1: 1.10e6; S2R+ cell number, rep 2: 1.24e6

For CG12713, what does the deposit list?
Kc cell number, rep 1: 1.49e6; Kc cell number, rep 2: 1.49e6; S2R+ cell number, rep 1: 1.24e6; S2R+ cell number, rep 2: 1.26e6

For CG4101, how do the results read?
Kc cell number, rep 1: 1.43e6; Kc cell number, rep 2: 1.61e6; S2R+ cell number, rep 1: 1.20e6; S2R+ cell number, rep 2: 1.32e6

What is on record for CG34244?
Kc cell number, rep 1: 1.42e6; Kc cell number, rep 2: 1.49e6; S2R+ cell number, rep 1: 1.13e6; S2R+ cell number, rep 2: 1.32e6

How did the screen score CG2938?
Kc cell number, rep 1: 5.71e5; S2R+ cell number, rep 1: 8.79e5

With CG6431, what does the deposit list?
Kc cell number, rep 1: 1.58e6; Kc cell number, rep 2: 1.59e6; S2R+ cell number, rep 1: 1.18e6; S2R+ cell number, rep 2: 1.33e6

How did the screen score CG14050?
Kc cell number, rep 1: 1.52e6; Kc cell number, rep 2: 1.49e6; S2R+ cell number, rep 1: 9.86e5; S2R+ cell number, rep 2: 1.07e6

What did the screen give for CG5946?
Kc cell number, rep 1: 1.46e6; Kc cell number, rep 2: 1.58e6; S2R+ cell number, rep 1: 1.24e6; S2R+ cell number, rep 2: 1.32e6

For CG12617, what does the deposit list?
Kc cell number, rep 1: 1.50e6; Kc cell number, rep 2: 1.62e6; S2R+ cell number, rep 1: 1.30e6; S2R+ cell number, rep 2: 3.28e5

With CG31636, what does the deposit list?
Kc cell number, rep 1: 1.57e6; Kc cell number, rep 2: 1.38e6; S2R+ cell number, rep 1: 1.16e6; S2R+ cell number, rep 2: 1.22e6

For Obp59a (Odorant-binding protein 59a), how do the results read?
Kc cell number, rep 1: 1.50e6; Kc cell number, rep 2: 1.56e6; S2R+ cell number, rep 1: 1.26e6; S2R+ cell number, rep 2: 1.30e6

3 entries from above, reduced to “S2R+ cell number, rep 1”.
CG11106	1.10e6
CG12713	1.24e6
CG4101	1.20e6

The list goes on:
How did the screen score CG18063?
Kc cell number, rep 1: 1.56e6; Kc cell number, rep 2: 1.60e6; S2R+ cell number, rep 1: 1.28e6; S2R+ cell number, rep 2: 1.44e6

With sals (sarcomere length short) #1, how do the results read?
Kc cell number, rep 1: 1.48e6; Kc cell number, rep 2: 1.53e6; S2R+ cell number, rep 1: 1.24e6; S2R+ cell number, rep 2: 1.25e6

What is on record for sals (sarcomere length short) #2?
Kc cell number, rep 1: 1.45e6; Kc cell number, rep 2: 1.43e6; S2R+ cell number, rep 1: 1.21e6; S2R+ cell number, rep 2: 1.24e6

How did the screen score Prosbeta7 (Proteasome beta7 subunit)?
Kc cell number, rep 1: 1.02e6 (active); Kc cell number, rep 2: 1.07e6; S2R+ cell number, rep 1: 6.75e5; S2R+ cell number, rep 2: 7.98e5

How did the screen score fkh (fork head)?
Kc cell number, rep 1: 1.56e6; Kc cell number, rep 2: 1.61e6; S2R+ cell number, rep 1: 1.04e6; S2R+ cell number, rep 2: 1.16e6

Which result is listed for CG11123?
Kc cell number, rep 1: 1.66e6; Kc cell number, rep 2: 1.70e6; S2R+ cell number, rep 1: 1.26e6; S2R+ cell number, rep 2: 1.38e6

Which result is listed for CG7518?
Kc cell number, rep 1: 1.62e6; Kc cell number, rep 2: 1.68e6; S2R+ cell number, rep 1: 1.15e6; S2R+ cell number, rep 2: 1.31e6

What did the screen give for Pus7 (Pseudouridine synthase 7)?
Kc cell number, rep 1: 1.29e6; Kc cell number, rep 2: 1.33e6; S2R+ cell number, rep 1: 1.12e6; S2R+ cell number, rep 2: 1.22e6

What did the screen give for Sap-r (Saposin-related)?
Kc cell number, rep 1: 1.55e6; Kc cell number, rep 2: 1.54e6; S2R+ cell number, rep 1: 1.05e6; S2R+ cell number, rep 2: 1.23e6
